The campaign covered roughly 320,000 compounds. About 2,100 (0.66%) were called active. The call rests on the fitted dose curve; in most records, active means well fitted inhibition curve with a large enough effect in the signal ratio, with a control signal flat (not every such curve was filed as active); inconclusive means small, poorly fitted or top-dose-only effect, or effect the other way, or a change in a side signal; inactive means flat fitted curve, though single readings scatter; the % refers to the signal ratio. Inconclusive results, whose numbers are uncertain, are shown. Potencies of inconclusive entries are doubtful fits and often do not repeat.
Experiment: qHTS Assay for Lipid Storage Modulators in Drosophila S3 Cells
Conditions: BODIPY lipid droplet fluorescence, 18-24 h, cells fed with added oleic acid; lipid storage change, negative = inhibition: at 46.1 µM (top of the series) unless noted
Procedure, shortened: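 Drosophila S3 cells got compounds at several concentrations plus oleic acid (400 uM solution). Laser-scanning cytometry with 488 nm excitation read lipid droplets at 500-530 nm and cells at 575-640 nm. Percent activity was relative to 20 uM Triacsin C.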
On the % scale 0 is the no-effect control and ±100 the full control effect; potency means the concentration at half of the fitted maximal effect.

Structure (SMILES)	lipid storage change, negative = inhibition	Potency
COc1ccccc1OCC(=O)NCC1CCCN(C(=O)c2ccccc2C(C)=O)C1 (stereo unspecified)	inconclusive: -44.4%	
COc1ccc(Br)cc1CNCC1CCCO1 (stereo unspecified)	inconclusive: 31.1%	
Cc1noc(C)c1S(=O)(=O)N1CCC(C(=O)O)CC1	inconclusive: -5.67%	
C/C(=N\NC(=O)c1cccc(F)c1)c1ccc(Br)s1	inconclusive: 17.4%	
C=CCNC1=C(Cl)C(=O)N(c2ccccc2Cl)C1=O	inconclusive: -36.6% [at 0.0737 µM]	
CCC(=O)Nc1ccc(N2CCN(C(=O)c3ccccc3C)CC2)cc1	inconclusive: 8.23%	
CCCc1cc(=O)[nH]c(SCC(=O)c2c(N)n(CC(C)C)c(=O)n(C)c2=O)n1	inconclusive	
CC(=O)Nc1ccc(NC(=O)CSc2ccc3nnc(-c4ccccn4)n3n2)cc1	inconclusive: 24.3%	
C=CCn1c(COc2ccc(F)cc2)nnc1SCC(=O)NC1CCS(=O)(=O)C1 (stereo unspecified)	inconclusive: 13.3%	
Cc1ccc(C)c(N(CC(=O)N2CCCCCC2)S(C)(=O)=O)c1		inconclusive: 13 µM [activator, partial curve, poor fit]
CCCC[C@H]1COCCS(=O)(=O)N1Cc1ccc(Br)cc1	inconclusive: -25.7%	
O=C(CN1CCCC1)Nc1ccc2c(c1)CCC2		inconclusive: 1.03 µM [falling, full curve, poor fit]
NS(=O)(=O)c1ccc(NC(=O)CN2CCN(S(=O)(=O)c3cccs3)CC2)cc1	inconclusive	
C#CCOCCOCCOCCNc1nc(N2CCN(C(=O)[C@H](CCC(=O)O)n3cc(C(N)CC(C)C)nn3)CC2)nc(N2CCN(C(=O)[C@H](CCC(=O)O)n3cc(C(N)[C@H](C)CC)nn3)CC2)n1 (stereo partly specified)		inconclusive: 0.0517 µM [falling, full curve, poor fit]
CSc1snnc1-c1ccccc1		inconclusive: 0.651 µM [rising, full curve]
O=c1nccc(NCc2ccco2)[nH]1	inconclusive: -12.7%	
CC1=CC(C)(C)[N+](C)(C)c2ccc(C)cc21		inconclusive: 6.51 µM [cytotoxic, single point]
CCOC(=O)c1ccc(C(=O)OCC)nc1		inconclusive: 29.1 µM [falling, single point]
COC(=O)c1ccc(-c2csc(NC(=O)c3c(C)noc3C)n2)cc1		inconclusive: 6.51 µM [activator, single point]
CCOc1ccc(NC(=O)COC(=O)c2ccc3c(c2)OCO3)cc1		inconclusive: 0.103 µM [activator, full curve, poor fit]
O=C(O)CCc1ccc(-c2ccccc2)n1NC(=O)c1cccs1	inconclusive: -2.11%	

Gathered by group: the entries above containing an NH in an aromatic ring (two)
Structure (SMILES)	lipid storage change, negative = inhibition	Potency
CCCc1cc(=O)[nH]c(SCC(=O)c2c(N)n(CC(C)C)c(=O)n(C)c2=O)n1	inconclusive	
O=c1nccc(NCc2ccco2)[nH]1	inconclusive: -12.7%	
